{
  "sequences": {"note": "Amino acid sequences for entries named in this document (tags omitted). A change or cut given only in a name is not applied to a line headed by its entry.", "UniProt Q9NRA8": "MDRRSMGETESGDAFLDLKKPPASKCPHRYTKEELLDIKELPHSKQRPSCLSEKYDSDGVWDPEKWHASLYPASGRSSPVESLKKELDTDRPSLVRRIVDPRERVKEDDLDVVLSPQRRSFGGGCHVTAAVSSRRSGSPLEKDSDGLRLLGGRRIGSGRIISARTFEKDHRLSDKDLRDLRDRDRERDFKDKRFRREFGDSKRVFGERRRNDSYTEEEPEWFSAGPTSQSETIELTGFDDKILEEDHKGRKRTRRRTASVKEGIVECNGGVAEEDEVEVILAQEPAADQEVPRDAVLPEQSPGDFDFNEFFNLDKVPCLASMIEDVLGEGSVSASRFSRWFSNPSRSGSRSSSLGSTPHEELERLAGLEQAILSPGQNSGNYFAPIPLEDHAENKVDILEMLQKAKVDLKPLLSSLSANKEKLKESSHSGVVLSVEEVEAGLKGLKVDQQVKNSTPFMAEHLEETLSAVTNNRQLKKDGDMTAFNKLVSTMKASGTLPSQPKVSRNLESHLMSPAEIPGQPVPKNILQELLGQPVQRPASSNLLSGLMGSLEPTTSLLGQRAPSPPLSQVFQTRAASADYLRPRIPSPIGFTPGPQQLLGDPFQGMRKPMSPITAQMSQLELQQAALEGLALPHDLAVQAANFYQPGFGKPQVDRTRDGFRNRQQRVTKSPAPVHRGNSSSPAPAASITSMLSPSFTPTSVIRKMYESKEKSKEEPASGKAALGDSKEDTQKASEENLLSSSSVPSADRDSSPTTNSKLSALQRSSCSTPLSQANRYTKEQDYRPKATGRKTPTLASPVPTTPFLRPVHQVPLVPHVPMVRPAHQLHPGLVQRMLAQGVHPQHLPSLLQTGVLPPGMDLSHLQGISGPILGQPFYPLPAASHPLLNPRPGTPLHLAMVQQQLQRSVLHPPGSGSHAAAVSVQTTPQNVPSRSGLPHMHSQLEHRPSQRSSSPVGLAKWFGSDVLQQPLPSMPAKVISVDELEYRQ", "UniProt Q9H3U1": "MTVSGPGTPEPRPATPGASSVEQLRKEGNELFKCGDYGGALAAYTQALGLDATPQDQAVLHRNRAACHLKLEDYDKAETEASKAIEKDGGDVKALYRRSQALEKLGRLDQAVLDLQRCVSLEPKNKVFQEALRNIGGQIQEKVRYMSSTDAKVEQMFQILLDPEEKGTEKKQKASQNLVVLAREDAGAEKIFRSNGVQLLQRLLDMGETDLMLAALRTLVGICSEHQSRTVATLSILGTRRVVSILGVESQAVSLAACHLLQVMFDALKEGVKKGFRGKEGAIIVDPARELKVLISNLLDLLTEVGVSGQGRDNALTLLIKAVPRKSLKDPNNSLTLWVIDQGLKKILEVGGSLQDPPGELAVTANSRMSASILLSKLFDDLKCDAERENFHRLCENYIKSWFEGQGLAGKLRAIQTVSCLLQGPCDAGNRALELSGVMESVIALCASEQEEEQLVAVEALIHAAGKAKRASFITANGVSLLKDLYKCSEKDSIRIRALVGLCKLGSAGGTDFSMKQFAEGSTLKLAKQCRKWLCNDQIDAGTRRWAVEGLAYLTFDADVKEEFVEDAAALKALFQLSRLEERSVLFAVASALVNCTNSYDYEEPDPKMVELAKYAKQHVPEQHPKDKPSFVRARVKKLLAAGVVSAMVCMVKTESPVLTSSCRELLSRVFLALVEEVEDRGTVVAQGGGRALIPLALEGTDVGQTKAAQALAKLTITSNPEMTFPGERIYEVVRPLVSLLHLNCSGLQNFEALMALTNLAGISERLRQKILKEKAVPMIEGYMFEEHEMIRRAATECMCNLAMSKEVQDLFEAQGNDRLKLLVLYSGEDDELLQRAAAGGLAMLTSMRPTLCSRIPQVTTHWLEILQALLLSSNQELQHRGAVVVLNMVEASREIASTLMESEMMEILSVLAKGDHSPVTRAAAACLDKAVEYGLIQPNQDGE", "UniProt Q9H501": "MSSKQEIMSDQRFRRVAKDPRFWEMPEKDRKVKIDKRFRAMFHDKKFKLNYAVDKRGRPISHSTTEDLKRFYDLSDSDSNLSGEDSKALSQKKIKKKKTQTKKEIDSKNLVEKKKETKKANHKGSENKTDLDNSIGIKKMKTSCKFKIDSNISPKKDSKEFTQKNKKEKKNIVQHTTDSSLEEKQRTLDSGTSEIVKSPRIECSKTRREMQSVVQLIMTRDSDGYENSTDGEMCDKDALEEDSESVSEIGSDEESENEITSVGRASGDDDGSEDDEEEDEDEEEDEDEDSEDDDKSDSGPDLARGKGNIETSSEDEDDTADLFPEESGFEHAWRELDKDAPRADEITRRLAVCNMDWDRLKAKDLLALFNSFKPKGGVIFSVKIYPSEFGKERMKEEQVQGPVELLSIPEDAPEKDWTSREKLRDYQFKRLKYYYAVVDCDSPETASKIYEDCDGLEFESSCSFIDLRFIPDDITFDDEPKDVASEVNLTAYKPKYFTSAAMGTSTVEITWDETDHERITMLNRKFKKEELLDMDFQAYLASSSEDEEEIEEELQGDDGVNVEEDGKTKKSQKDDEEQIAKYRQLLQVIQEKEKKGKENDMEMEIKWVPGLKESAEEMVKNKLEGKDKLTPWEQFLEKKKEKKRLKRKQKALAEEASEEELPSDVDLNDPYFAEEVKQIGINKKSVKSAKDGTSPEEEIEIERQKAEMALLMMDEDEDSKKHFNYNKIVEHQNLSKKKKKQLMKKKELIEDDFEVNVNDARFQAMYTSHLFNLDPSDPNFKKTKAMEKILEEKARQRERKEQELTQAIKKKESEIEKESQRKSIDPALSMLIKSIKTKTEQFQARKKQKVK", "UniProt Q9NR30": "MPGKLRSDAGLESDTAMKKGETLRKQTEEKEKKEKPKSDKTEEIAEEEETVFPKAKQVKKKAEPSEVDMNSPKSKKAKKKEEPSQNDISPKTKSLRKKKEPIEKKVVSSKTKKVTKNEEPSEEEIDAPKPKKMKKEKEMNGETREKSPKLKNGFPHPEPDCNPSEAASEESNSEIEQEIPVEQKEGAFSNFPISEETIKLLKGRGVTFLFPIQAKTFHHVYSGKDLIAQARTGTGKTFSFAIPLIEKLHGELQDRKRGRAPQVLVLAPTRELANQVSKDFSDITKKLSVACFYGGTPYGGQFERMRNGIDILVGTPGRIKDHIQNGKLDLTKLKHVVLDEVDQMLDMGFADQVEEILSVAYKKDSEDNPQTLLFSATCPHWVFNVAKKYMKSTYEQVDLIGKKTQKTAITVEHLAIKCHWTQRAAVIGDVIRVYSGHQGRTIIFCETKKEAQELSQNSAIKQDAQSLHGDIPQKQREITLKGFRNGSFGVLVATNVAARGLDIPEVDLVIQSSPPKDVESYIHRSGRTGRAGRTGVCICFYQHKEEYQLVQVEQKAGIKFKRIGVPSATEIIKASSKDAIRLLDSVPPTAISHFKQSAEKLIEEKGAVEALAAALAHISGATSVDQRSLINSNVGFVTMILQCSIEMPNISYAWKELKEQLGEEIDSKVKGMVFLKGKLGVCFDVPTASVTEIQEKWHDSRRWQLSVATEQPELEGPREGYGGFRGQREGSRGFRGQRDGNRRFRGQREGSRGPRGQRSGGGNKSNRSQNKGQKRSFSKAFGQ", "UniProt Q9NRR5, whole entry": "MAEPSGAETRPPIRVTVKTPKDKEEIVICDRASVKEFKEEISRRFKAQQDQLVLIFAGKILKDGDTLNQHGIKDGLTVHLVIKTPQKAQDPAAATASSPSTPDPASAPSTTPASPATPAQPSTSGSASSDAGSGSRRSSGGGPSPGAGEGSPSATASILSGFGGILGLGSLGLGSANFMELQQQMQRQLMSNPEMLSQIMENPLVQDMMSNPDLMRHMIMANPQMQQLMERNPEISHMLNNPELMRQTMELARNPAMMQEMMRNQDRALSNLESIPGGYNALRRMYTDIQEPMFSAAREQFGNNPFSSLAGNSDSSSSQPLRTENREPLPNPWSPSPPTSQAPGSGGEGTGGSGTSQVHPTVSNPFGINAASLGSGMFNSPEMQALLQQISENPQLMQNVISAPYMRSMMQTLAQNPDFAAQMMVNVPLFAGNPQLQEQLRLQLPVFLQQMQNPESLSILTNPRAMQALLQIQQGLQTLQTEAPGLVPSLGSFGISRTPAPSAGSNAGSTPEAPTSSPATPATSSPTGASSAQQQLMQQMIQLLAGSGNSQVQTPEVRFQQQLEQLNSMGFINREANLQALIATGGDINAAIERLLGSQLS", "UniProt Q9H4L4": "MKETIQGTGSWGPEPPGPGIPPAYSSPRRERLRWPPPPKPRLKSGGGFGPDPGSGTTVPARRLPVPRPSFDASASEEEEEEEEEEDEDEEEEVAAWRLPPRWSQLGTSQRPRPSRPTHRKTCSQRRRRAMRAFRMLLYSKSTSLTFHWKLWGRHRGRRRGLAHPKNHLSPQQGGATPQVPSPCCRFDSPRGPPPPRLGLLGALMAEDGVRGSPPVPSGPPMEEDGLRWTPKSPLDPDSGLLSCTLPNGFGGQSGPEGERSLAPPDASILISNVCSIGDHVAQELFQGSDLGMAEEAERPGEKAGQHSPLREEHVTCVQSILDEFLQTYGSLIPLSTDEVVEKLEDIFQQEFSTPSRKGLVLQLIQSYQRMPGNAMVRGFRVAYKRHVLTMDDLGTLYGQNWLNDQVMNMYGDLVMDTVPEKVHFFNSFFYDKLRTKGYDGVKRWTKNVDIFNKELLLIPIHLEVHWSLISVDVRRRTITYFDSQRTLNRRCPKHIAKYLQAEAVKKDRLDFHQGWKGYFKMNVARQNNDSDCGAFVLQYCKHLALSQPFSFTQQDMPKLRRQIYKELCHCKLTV", "UniProt Q9NQW6": "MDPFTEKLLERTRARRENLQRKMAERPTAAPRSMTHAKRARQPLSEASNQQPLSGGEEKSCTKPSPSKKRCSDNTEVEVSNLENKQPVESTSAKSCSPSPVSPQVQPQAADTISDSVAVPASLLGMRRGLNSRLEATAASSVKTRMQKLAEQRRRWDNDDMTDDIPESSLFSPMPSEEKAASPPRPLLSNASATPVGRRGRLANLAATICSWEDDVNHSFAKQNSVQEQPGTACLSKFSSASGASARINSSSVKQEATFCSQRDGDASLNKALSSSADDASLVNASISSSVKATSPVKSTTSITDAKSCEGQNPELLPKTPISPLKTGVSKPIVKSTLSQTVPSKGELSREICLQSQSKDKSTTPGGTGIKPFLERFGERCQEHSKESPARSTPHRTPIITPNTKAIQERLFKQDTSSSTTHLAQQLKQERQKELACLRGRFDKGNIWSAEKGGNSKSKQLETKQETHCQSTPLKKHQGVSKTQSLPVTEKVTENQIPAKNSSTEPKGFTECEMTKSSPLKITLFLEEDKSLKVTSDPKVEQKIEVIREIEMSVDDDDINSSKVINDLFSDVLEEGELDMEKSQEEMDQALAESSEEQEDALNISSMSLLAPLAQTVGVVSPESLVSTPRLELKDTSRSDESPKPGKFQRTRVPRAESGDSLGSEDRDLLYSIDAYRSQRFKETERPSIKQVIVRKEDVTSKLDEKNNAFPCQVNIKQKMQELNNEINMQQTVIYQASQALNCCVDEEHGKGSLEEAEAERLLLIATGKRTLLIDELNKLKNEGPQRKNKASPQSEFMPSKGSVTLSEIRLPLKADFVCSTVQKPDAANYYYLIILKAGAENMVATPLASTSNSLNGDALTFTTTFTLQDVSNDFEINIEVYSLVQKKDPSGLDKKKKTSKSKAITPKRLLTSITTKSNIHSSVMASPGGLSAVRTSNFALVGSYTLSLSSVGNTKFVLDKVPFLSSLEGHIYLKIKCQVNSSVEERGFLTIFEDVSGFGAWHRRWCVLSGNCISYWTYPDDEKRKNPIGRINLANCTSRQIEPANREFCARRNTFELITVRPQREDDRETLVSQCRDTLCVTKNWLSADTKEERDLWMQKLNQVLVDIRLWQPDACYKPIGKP", "UniProt Q9NR56": "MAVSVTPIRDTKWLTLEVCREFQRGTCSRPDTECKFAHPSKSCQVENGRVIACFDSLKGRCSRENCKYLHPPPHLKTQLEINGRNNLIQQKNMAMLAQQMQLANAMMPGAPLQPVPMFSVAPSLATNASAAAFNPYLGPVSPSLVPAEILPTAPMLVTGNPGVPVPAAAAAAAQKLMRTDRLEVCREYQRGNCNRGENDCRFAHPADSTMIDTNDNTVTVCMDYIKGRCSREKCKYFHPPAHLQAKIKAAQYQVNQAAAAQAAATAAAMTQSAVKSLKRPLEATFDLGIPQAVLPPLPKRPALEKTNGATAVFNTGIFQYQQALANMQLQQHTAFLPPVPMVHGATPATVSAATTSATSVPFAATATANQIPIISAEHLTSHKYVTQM", "UniProt Q9NRP4": "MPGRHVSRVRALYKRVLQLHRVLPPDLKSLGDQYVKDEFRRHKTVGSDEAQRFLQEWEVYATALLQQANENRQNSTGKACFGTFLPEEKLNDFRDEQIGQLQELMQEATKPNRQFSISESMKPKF", "UniProt Q9H7C9": "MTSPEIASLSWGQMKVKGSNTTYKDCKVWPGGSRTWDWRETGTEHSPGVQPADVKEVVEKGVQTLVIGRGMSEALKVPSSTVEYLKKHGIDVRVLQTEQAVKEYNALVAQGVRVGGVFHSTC"},
  "source": "the supplement of paper PMC11006884",
  "note": "The targets with a hit were mostly taken out for another list; the other results follow. Single values of this set are uncertain. This is a selection; strong and weak results do not stand in their true shares.",
  "data": [
    {"compound": "COC(=O)/C=C/c1ccccc1 [methyl cinnamate]", "experiment": "log2 ratio of iodoacetamide-alkyne labeling of the cysteine site, DMSO over compound (competition); higher = stronger covalent engagement of the cysteine by the compound, active = 1 or more", "details": "500 µM; treatment time 1 h; system: HEK293T cell lysate", "outline": "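Electrophile (500 µM) or vehicle was added to HEK293T lysate (2 mg/mL) for 1 h at ambient temperature before iodoacetamide alkyne labelling (1 h) and click coupling to sCIP-TMT reagents. After pooling, overnight trypsin digestion at 37 °C, streptavidin enrichment and acid elution, peptides were measured by Orbitrap Eclipse LC-MS/MS with FAIMS and quantified in FragPipe. Each cysteine's log2 competition ratio compares mean control-channel with mean compound-channel reporter intensity, control over compound. Data came from duplicate channels across three replicates, excluding cysteines quantified in only one replicate.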", "values": [
      {"target": "EIF4ENIF1 C767 (UniProt Q9NRA8)", "log2 ratio of iodoacetamide-alkyne labeling": "inactive: 0.58"},
      {"target": "LUC7L C44 (UniProt Q9NQ29)", "log2 ratio of iodoacetamide-alkyne labeling": "inactive: 0.176"},
      {"target": "UNC45A C384 (UniProt Q9H3U1)", "log2 ratio of iodoacetamide-alkyne labeling": "inactive: -0.0492"},
      {"target": "ESF1 C462 (UniProt Q9H501)", "log2 ratio of iodoacetamide-alkyne labeling": "inactive: 0.296"},
      {"target": "DDX21 C682 (UniProt Q9NR30)", "log2 ratio of iodoacetamide-alkyne labeling": "inactive: -0.0208"},
      {"target": "UBQLN4 C29 (UniProt Q9NRR5)", "log2 ratio of iodoacetamide-alkyne labeling": "inactive: 0.493"},
      {"target": "IARS2 C414 (UniProt Q9NSE4)", "log2 ratio of iodoacetamide-alkyne labeling": "inactive: 0.171"},
      {"target": "BIRC6 C613 (UniProt Q9NR09)", "log2 ratio of iodoacetamide-alkyne labeling": "inactive: 0.363"},
      {"target": "EHMT1 C276 (UniProt Q9H9B1)", "log2 ratio of iodoacetamide-alkyne labeling": "inactive: 0.326"},
      {"target": "SENP3 C243 (UniProt Q9H4L4)", "log2 ratio of iodoacetamide-alkyne labeling": "inactive: 0.136"},
      {"target": "ANLN C309 (UniProt Q9NQW6)", "log2 ratio of iodoacetamide-alkyne labeling": "inactive: 0.18"},
      {"target": "AAAS C444 (UniProt Q9NRG9)", "log2 ratio of iodoacetamide-alkyne labeling": "inactive: 0.0683"},
      {"target": "CNOT10 C633 (UniProt Q9H9A5)", "log2 ratio of iodoacetamide-alkyne labeling": "inactive: 0.193"},
      {"target": "ATP13A1 C574 (UniProt Q9HD20)", "log2 ratio of iodoacetamide-alkyne labeling": "inactive: -0.0619"},
      {"target": "CXorf56 C96 (UniProt Q9H5V9)", "log2 ratio of iodoacetamide-alkyne labeling": "inactive: -0.106"},
      {"target": "EXOSC5 C26 (UniProt Q9NQT4)", "log2 ratio of iodoacetamide-alkyne labeling": "inactive: 0.173"},
      {"target": "MRPS30 C316 (UniProt Q9NP92)", "log2 ratio of iodoacetamide-alkyne labeling": "inactive: 0.203"},
      {"target": "PREB C128 (UniProt Q9HCU5)", "log2 ratio of iodoacetamide-alkyne labeling": "inactive: 0.175"},
      {"target": "UNC45A C34 (UniProt Q9H3U1)", "log2 ratio of iodoacetamide-alkyne labeling": "inactive: -0.0249"},
      {"target": "MBNL1 C34 (UniProt Q9NR56)", "log2 ratio of iodoacetamide-alkyne labeling": "inactive: 0.254"},
      {"target": "XPO5 C736 (UniProt Q9HAV4)", "log2 ratio of iodoacetamide-alkyne labeling": "inactive: 0.278"},
      {"target": "EXOSC4 C97 (UniProt Q9NPD3)", "log2 ratio of iodoacetamide-alkyne labeling": "inactive: 0.196"},
      {"target": "BAZ1A C547 (UniProt Q9NRL2)", "log2 ratio of iodoacetamide-alkyne labeling": "inactive: 0.106"},
      {"target": "XPO5 C706 (UniProt Q9HAV4)", "log2 ratio of iodoacetamide-alkyne labeling": "inactive: 0.349"},
      {"target": "UCK1 C9 (UniProt Q9HA47)", "log2 ratio of iodoacetamide-alkyne labeling": "inactive: 0.343"},
      {"target": "HELLS C836 (UniProt Q9NRZ9)", "log2 ratio of iodoacetamide-alkyne labeling": "inactive: 0.0954"},
      {"target": "DDX31 C413 (UniProt Q9H8H2)", "log2 ratio of iodoacetamide-alkyne labeling": "inactive: -0.315"},
      {"target": "DSN1 C287 (UniProt Q9H410)", "log2 ratio of iodoacetamide-alkyne labeling": "inactive: -0.149"},
      {"target": "MRPL44 C53 (UniProt Q9H9J2)", "log2 ratio of iodoacetamide-alkyne labeling": "inactive: -0.707"},
      {"target": "EPB41L5 C385 (UniProt Q9HCM4)", "log2 ratio of iodoacetamide-alkyne labeling": "inactive: 0.0183"},
      {"target": "MDN1 C3528 (UniProt Q9NU22)", "log2 ratio of iodoacetamide-alkyne labeling": "inactive: 0.048"},
      {"target": "UniProt Q9NRP4_C80", "log2 ratio of iodoacetamide-alkyne labeling": "inactive: 0.429"},
      {"target": "UniProt Q9H7C9_C122", "log2 ratio of iodoacetamide-alkyne labeling": "inactive: 0.235"},
      {"target": "ATG3 C182 (UniProt Q9NT62)", "log2 ratio of iodoacetamide-alkyne labeling": "inactive: 0.451"},
      {"target": "POLE3 C51 (UniProt Q9NRF9)", "log2 ratio of iodoacetamide-alkyne labeling": "inactive: 0.122"},
      {"target": "DSN1 C355 (UniProt Q9H410)", "log2 ratio of iodoacetamide-alkyne labeling": "inactive: 0.386"},
      {"target": "RPRD1B C234 (UniProt Q9NQG5)", "log2 ratio of iodoacetamide-alkyne labeling": "inactive: -0.119"}
    ]}
  ]
}
